The values below come from article PMC9908615.

The chains behind the UniProt entries cited, without tags or fusion partners. Where a name states a change or a piece, a line headed by the entry shows the natural chain unless it says otherwise.
UniProt Q7Z494: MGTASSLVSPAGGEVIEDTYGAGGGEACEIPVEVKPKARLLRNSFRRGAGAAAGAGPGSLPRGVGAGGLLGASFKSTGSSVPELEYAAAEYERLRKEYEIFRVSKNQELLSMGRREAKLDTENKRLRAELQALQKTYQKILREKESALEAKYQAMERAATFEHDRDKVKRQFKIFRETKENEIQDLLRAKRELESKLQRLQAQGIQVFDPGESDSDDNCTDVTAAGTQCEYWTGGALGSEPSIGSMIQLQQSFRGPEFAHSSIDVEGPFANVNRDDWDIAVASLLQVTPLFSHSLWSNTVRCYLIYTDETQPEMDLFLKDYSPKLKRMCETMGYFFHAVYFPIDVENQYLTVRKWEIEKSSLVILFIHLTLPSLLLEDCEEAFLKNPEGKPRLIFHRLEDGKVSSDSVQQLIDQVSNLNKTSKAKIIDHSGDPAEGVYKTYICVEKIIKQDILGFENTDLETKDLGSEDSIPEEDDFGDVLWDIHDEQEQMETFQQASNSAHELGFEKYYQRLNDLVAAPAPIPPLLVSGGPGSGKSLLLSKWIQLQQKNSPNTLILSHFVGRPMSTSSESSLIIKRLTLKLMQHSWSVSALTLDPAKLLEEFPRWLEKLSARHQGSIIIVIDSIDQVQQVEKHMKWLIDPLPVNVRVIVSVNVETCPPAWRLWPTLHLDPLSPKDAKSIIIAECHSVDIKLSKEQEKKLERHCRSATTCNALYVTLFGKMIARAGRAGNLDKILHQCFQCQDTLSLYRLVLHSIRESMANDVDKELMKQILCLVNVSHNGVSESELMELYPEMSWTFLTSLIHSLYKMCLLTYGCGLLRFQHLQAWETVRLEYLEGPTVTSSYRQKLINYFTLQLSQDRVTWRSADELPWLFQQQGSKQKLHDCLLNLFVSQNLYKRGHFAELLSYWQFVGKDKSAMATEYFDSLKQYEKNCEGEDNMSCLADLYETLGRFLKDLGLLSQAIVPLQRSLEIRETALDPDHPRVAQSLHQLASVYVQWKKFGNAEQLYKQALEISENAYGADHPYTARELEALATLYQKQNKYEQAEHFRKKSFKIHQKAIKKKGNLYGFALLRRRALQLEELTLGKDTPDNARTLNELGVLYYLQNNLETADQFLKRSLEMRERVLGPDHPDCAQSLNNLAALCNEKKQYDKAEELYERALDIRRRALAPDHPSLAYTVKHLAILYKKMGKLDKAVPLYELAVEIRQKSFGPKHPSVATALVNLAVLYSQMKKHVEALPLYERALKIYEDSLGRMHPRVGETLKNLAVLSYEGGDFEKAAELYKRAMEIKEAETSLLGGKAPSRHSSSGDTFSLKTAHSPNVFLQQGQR

The labels stand for the following.
B1: SH3BP4 (protein, UniProt Q921I6 1-962)
chain: MAAQRIRAANASGLPRCKSEGTLIDLSEGFSETSFNDVKVPSPSALLVDNPTPFGNAKEVIAIKDYCPNNFTTLKFSKGDHLYVLDTSGGEWWYAHNTTEMGYIPSSYVQPLNYRNSTLSDSGMIDNLPDSPEEVAKELDLLGGGWTDDQKESGRPYSNNPFWNGVRTNPFLNGNAQPSTDELNPKSTVDLLLFDTGTSSFTESSSATTNSTGNIFDELPATNGLQVEQPVKRDNPFFRSKRSYSLSELSVLQAKSDAPPTSSFFTGLKSPVPEQFQSREDFRTAWLNHRKLARSCHDLDLLGQSPGWGQTQAVETNIVCKLDSSGGSVQLPDTNISIHVPEGHVAPGETQQISMKALLDPPLDLNSDRSTSVSPVVEVKLSNLEVSTFIILEMKVSAEVKGDIFSKSTVVLQCLRSDSKEGPYVPIPLAYSYGDTIQVQLDNLEPCMYLAIVAQGPNILYPSTVWDFINKRVTVGLYGPKHIHPSFKTVVTIFGHDCAPKTLLVSEVTRQAPSPAPVALQLWGKHQFILSRPQDLRVCMFSNMTNYEVKANEQARVVRGFQMKLGKVSRLIFSVISQNPNELSDFTLRVQVKDDQDTILTQFCVQTPQPPPKSAIKPSGQRRFLKKNEVGKIILSPFVVTTKYPTFQDRPVSSLKFGKLLKTVVRQNKSHYLLEYKKGDVVALLSEERIRLKGQLWTKEWYIGYYQGKVGLVHTKNVLVVGKARPSLFSGPELSTSVLLEQILRPCKFLTYIYASVRTLLMENISSWRAFADALGYGNLPLTFFCRAELDSEPERVASVLEKLKEDCNNPDNKDRKSFQKELVMALLKMDCQGLVVRLIQDFVLLTTAVEVAQRWRELAEKLAKVSKQQMDAYESPHRDRNGVVDSEAMWKPAYDFLLTWSHQIGDSYRDVIQELHIGLDKMKNPITRRWKHLTGTLILVNSLDILRAAAFSPADHDDFVI
B2: EPN2 (protein, UniProt Q8CHU3 1-595)
chain: MTTSSIRRQMKNIVNNYSEAEIKVREATSNDPWGPSSSLMTEIADLTYNVVAFSEIMSMVWKRLNDHGKNWRHVYKALTLLDYLIKTGSERVAQQCRENIFAIQTLKDFQYIDRDGKDQGINVREKSKQLVALLKDEERLKVERVQALKTKERMAQVATGVGSNQITFGRGSSQPNLSTSYSEQEYGKAGGSPASYHGSTSPRVSSELEQARPQTSGEEELQLQLALAMSREVAEQSSESVQTARGSKEERLRRGDDLRLQMALEESRRDTVKVPKKKEAKACCKPGSHSQQTTLLDLMDALPSSGPVTQKTEPWSAGASANQTNPWGGTVAPSNITDPWPSFGTKPAASVDPWGVPTTASTQSVPKNSDPWAASQQPASNAGKTTDAWGAAKPSSASGSFELFSNFNGTVKDDFSEFDNLRTSKKPAESGASVPPQDSRTTSPDLFESQSLTSASSKPSSARKTPESFLGPNAALVNLDSLVTKPAPPAQSLNPFLAPGAAAPAPVNPFQVNQPQPLTLNQLRGSPVLGSSASFGSGPGVETVAPMTSVAPHSSVGASGSSLTPLGPTAMNMVGSVGIPPSAAQSTGTTNPFLL
B3: CLINT1 (protein, UniProt Q99KN9 1-631)
chain: MLIFMYLYVCVCTCTCAFSLCSTNVVMNYSEIESKVREATNDDPWGPSGQLMGEIAKATFMYEQFPELMNMLWSRMLKDNKKNWRRVYKSLLLLAYLIRNGSERVVTSAREHIYDLRSLENYHFVDEHGKDQGINIRQKVKELVEFAQDDDRLREERKKAKKNKDKYVGVSSDSVGGFRYNERYDPEPKSKWDEEWDKNKSAFPFSDKLGELSDKIGSTIDDTISKFRRKDREDSPERCSDSDEEKKARRGRSPKGEFKDEEETVTTKHIHITQATETTTTRHKRTANPSKTIDLGAAAHYTGDKASPDQNASTHTPQSSAKPSVPSSKSSGDLVDLFDGSSQSAGGSADLFGGFADFGSAAASGNFPSQATSGNGDFGDWSAFNQAPSGPVASGGELFGSAPQSAVELISASQPALGPPPAASNSADLFDLMGSSQATMTSSQSMNFSLMSTNTVGLGLPMSRSQNTDMVQKSASKTLPSTWSDPSVNISLDNLLPGMQPSKPQQPSLNTMIQQQNMQQPLNVMTQSFGAVNLSSPSNMLPVRPQTNPLLGGPMPMNMPGVMTGTMGMAPLGNSAGMSQGMVGMNMNMGMSASGMGLSGTMGMGMPSMAMPSGTVQPKQDAFANFANFSK

Results are given in words; binding and its absence hold for the method and conditions named. In cells and extracts the contact can be indirect. A yes stands for co-enrichment or nearness to the bait. Other partners may have been found.

The target in this experiment is NPHP3-BioID2-RAD23B (aa185-409) (human) (UniProt Q7Z494). Kind of experiment: proximity labelling; NPHP3-BioID2-RAD23B (aa185-409) stably expressed in IMCD3 Flp-In cells, starvation medium 48 h, 10 uM biotin for the last 24 h; RIPA lysis, StrepTactin Superflow beads 3 h at 4°C, on-bead trypsin digestion, label-free MS; enrichment against the NPHP3-BioID2 control line; 6 replicates per cell line.
For B1, the binding entry was “binds”. In the case of B2, the binding entry is on record as “binds”. To B3 belongs “binds”.
